This is an account of results in the supplement of paper PMC8497498.

The other results are listed elsewhere or left out. The data scatter; read single values as rough.

Common to all, as to conditions: 10 µM
The test system of experiment [1] is Plasmodium vivax liver stage (primary human hepatocyte culture). In words: hypnozoite quantity inhibition (% inhibition); higher = more active against hypnozoites.
Experiment [2] shares this test system. In words: schizont net growth area inhibition (% inhibition); higher = more active against liver schizonts.
Experiment [3] has as its system primary human hepatocytes. In words: hepatic nuclei reduction relative to DMSO (100 - % of negative control); higher = more toxic to hepatocytes.
Setting [4] is: assay mode: Prophylactic (treated before or shortly after infection), fixed day 6 post-infection.
[5] abbreviates: assay mode: Radical Cure (treated from day 5 post-infection for 3 days), fixed day 8 post-infection.

Regarding `CCCC(c1nnnn1C1CCCCC1)N1CCN(C(=O)c2ccco2)CC1` (stereo unspecified), the hypnozoite quantity inhibition in experiment [1] (setting [4]) was 24.6; in experiment [1] (setting [5]) it was 4.7. Further, the “schizont net growth area inhibition” value is -23.7 in experiment [2] (setting [4]) and -82.9 in experiment [2] (setting [5]). In addition, the hepatic nuclei reduction came out at 10% in experiment [3] (setting [4]) and 0% in experiment [3] (setting [5]).

`CC(C)(C)c1ccc(C2CC3=Nc4ccccc4N(C(=O)c4ccccc4Cl)C(c4ccc(F)cc4)C3=C(O)C2)cc1` (stereo unspecified): the values for the hypnozoite quantity inhibition in experiment [1] (setting [4]) and in experiment [1] (setting [5]) were 18.8 and 38.2, respectively. Further, the entries for the “schizont net growth area inhibition” value in experiment [2] (setting [4]) and in experiment [2] (setting [5]) were -3.9 and -62, respectively. Further, the hepatic nuclei reduction in experiment [3] (setting [4]) was -8%; in experiment [3] (setting [5]) it was 4%.

In the case of `CCOc1c(Br)cc(C2C(C(=O)OC)=CN(C)C=C2C(=O)OC)cc1OC`, the hypnozoite quantity inhibition in experiment [1] (setting [4]) was -11.7; in experiment [1] (setting [5]), 35.9. Also, the “schizont net growth area inhibition” value worked out at 24.5 in experiment [2] (setting [4]) and 50.9 in experiment [2] (setting [5]). Also, the figures for the hepatic nuclei reduction in experiment [3] (setting [4]) and in experiment [3] (setting [5]) were -14% and -5%, respectively.

As to `COc1cc(OC)c(N(C)C(=O)c2cc3c(s2)-c2ccccc2S(=O)(=O)C3)cc1Cl`, the figures for the hypnozoite quantity inhibition in experiment [1] (setting [4]) and in experiment [1] (setting [5]) were 2.5 and 18.3, respectively. The “schizont net growth area inhibition” value was 56.6 in experiment [2] (setting [4]) and -218 in experiment [2] (setting [5]). Also, the hepatic nuclei reduction is -4% in experiment [3] (setting [4]) and -9% in experiment [3] (setting [5]).

In the case of `CCn1ncc2c(NC3CCOCC3)c(CNC(=O)c3ccnn3C)c(C)nc21`, the hypnozoite quantity inhibition is 99 in experiment [1] (setting [4]) and -2 in experiment [1] (setting [5]). The “schizont net growth area inhibition” value in experiment [2] (setting [4]) was 102; in experiment [2] (setting [5]), 93.7. Also, the hepatic nuclei reduction in experiment [3] (setting [4]) is 13%; in experiment [3] (setting [5]) it was -2%.

As for `COc1ccc(C2NCCc3c2[nH]c2ccccc32)cc1CN1CCN(c2ccc(F)cc2)CC1` (stereo unspecified), the hypnozoite quantity inhibition in experiment [1] (setting [4]) was 29.2; in experiment [1] (setting [5]), 33.6. Besides, the “schizont net growth area inhibition” value in experiment [2] (setting [4]) was determined as 47.4; in experiment [2] (setting [5]), 53.6. The hepatic nuclei reduction in experiment [3] (setting [4]) was 30%; in experiment [3] (setting [5]), -6%.
